Key:
[1] = test system: B. subtilis Marburg NBRC13719; test: Growth and Si content of acetone-treated cells by ICP/MS (Example 4); format: cell-based, Bacillus subtilis
E. coli K12 NBRC 3301 = test: as above; format: cell-based, Escherichia coli; conditions: lac 1 + compound 5

Structure (SMILES)	Si content (ng/mg) in acetone cell ([1]; lac 3 + compound 5)	Si content (ng/mg) in acetone cell (E. coli K12 NBRC 3301)	Si content (ng/mg) in acetone cell ([1]; lac 1 + compound 5)
CO[Si](C)(OC)OC [mmSi, Methyltrimethoxysilane]	126 ng/mg		
CCO[Si](C)(C)OCC [emSi, Diethoxydimethylsilane]		96 ng/mg	126 ng/mg

Reference: US9139810B2, “Method for culturing microorganisms to incorporate a substitue element” (priority 2010, dated 2015)
